This is one part of the list. The main result of the screen is listed elsewhere. These columns were measured beside it and carry no call. Most of these compounds were active or inconclusive in the main read-out, so they are no random draw.

This is an account of results in PubChem BioAssay AID1273 (Columbia University Molecular Screening Center, 2008).

The assay is described as follows: inhibitors of insulin promoter-driven GFP, primary screen, imaging, TRM-6 cells (human fetal islet line), eGFP reporter, cell count (AID 1273;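 further: cells exposed to compound for 48 h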). The note with it: measured here: cell count, toxicity, at 2 µM, reporter expression induced with tamoxifen.
The compound `CC(=O)OC(C(=O)NCc1ccco1)c1cccnc1` (stereo not drawn) showed a normalized cell count of 61.4%.
The result for `CCn1nc(C)c(NC(=O)CSc2nnc(-c3ccco3)n2C)c1C` reads 90.5%; that for `C/C(=C\c1ccco1)C1C(C#N)=C(N)OC2=C1C(=O)CC(C)(C)C2` (stereo not drawn), 138%; that for `O=C(Nc1ccc(Cl)cc1)c1cc2nc(-c3ccco3)cc(C(F)(F)F)n2n1`, 46.3%.
The result for `CCCCNc1nc2ccccc2[nH]1` reads 3.77%; that for `Cc1cc(C)cc(COn2ccnc2)c1`, 42.6%; that for `COc1ccc(-c2[nH]ncc2/C=C(\C#N)C(=O)NC2CC2)cc1`, 67.4%.
Next, `Cc1cc2c(cc1C)CSC(c1ccc3ccccc3c1O)SC2`: 104%; `CCN(CC)CCN(C(=O)c1ccc(S(=O)(=O)N2CCCCC2)cc1)c1nc2cc3c(cc2s1)OCO3`: 88.8%.
The compound `CCOC(=O)c1[nH]c2cc(OC)c(OC)cc2c1NC(=O)CN1CCN(c2ccc(OC)cc2)C(C)C1` (stereo not drawn) gave a normalized cell count of 173%.
The result for `O=C(CCCc1cccs1)Nc1nc2c(s1)CCCC2` reads 150%; that for `Cc1nc(C)c(-c2csc(Nc3cccnc3)n2)s1`, 146%.
The result for `CC(=O)Nc1ccc(NC(=O)c2cccc3c2-c2ccccc2C3=O)cc1` reads 25%.
The result for `Cc1ccc(Cl)cc1N1CCN(C(=O)C2CCN(c3nnc(-n4cccc4)s3)CC2)CC1` reads 121%; that for `CN1CCn2c1nc(N1CCOCC1)nc2=O`, 149%; that for `Cn1cc(CN2CCc3ccccc3C2)c2ccccc21`, 54.4%.
For `Cc1ccc(N2CC(C(=O)NCc3cccnc3)CC2=O)cc1` (stereo not drawn), the normalized cell count worked out at 115%.
The result for `O=C(CN1CCN(Cc2ccc(Cl)cc2)CC1)N/N=C/C=C/c1ccccc1[N+](=O)[O-]` reads 66.5%; that for `CCOC(=O)[C@H](CCc1ccccc1)N[C@@H](C)C(=O)N1CCC[C@H]1C(=O)O`, 126%; that for `Nc1cc(=O)[nH]c(=S)n1-c1cccc(C(F)(F)F)c1`, 89.1%.
Next, `Cc1ccc(-n2c(=O)[nH]cc(C(=O)Nc3ccc4c(c3)OCCO4)c2=O)cc1C`: 135%; `COc1cccc(C(=O)Nc2nc(-c3ccncc3)cs2)c1`: 155%; `COc1cccc(-c2nnc(-c3ccc(C(F)(F)F)cc3)o2)c1OC`: 70.4%.
The result for `O=C(O)C1CSC(c2ccccc2)N1C(=O)c1ccco1` (stereo not drawn) reads 104%.
For the compound `CCC(=O)n1nc(-c2ccc(OC)cc2)nc1SC`, the normalized cell count was found to be 167%.
Next, `O=c1oc(-c2cccs2)nc2sc3c(c12)CCCC3`: 81.9%; `CCCCOC(=O)c1nc[nH]c1C(=O)OCCCC`: 119%; `Cn1c(Cc2ccccc2)nnc1SCc1ccc(C(=O)O)cc1`: 104%.
Regarding `CCN(CC)C(=O)c1sc2c(c1C)c(=O)n(-c1ccc(C)c(C)c1)c(=O)n2CC(=O)NCC1CCCO1` (stereo not drawn), the normalized cell count was found to be 27.2%.
Compound `Cc1ccc(N=Nc2c(N)nn3c(C)cc(C)nc23)cc1` returned a normalized cell count of 117%.
Regarding `C=CCNc1nc(N2CCCC2)nc2ccccc12`, the normalized cell count was 104%.
Next, `COc1ccc(-c2nnc(N)s2)cc1`: 100%; `COc1ccc(C2=C(N)c3ccccc3C2=O)cc1`: 46.2%.
The result for `O=C(Nc1ccsc1C(=O)NC1CC1)c1ccccc1` reads 132%.
Next, `CCCNc1nc(OC(C(F)(F)F)C(F)(F)F)nc(OC(C(F)(F)F)C(F)(F)F)n1`: 149%; `O=C(Nc1cccs1)Nc1ccc(Br)cc1F`: 190%.
`CCN(CC)C(c1ccc(F)cc1)c1nnnn1CC1CCCO1` (stereo not drawn) showed a normalized cell count of 97.2%.
The result for `COc1ccc(C(=O)N2CCN(C(C)=O)CC2)cc1S(=O)(=O)NCc1ccc(Cl)cc1` reads 154%; that for `CCC(=O)Nc1cc(C)c(NC(=O)C23CC4CC(CC(C4)C2)C3)cn1`, 50.8%.
Next, `COc1ccc(CCNC(=O)C2CCN(S(=O)(=O)c3c(C)noc3C)CC2)cc1OC`: 68.2%.
Next, `COc1ccc(N2CCN(C(=O)CN(c3ccc(Br)cc3)S(C)(=O)=O)CC2)cc1`: 26.9%; `N#CC1=C2SCN(Cc3ccccc3)CN2C(=O)CC1c1ccc2c(c1)OCO2` (stereo not drawn): 106%; `CN(C)S(=O)(=O)c1ccc(N2CCCC2)c(C(=O)NCC2CCCCC2)c1`: 70.6%.
In turn, `COC(=O)c1cc(-c2ccc(Cl)cc2Cl)n[nH]1` displayed a normalized cell count of 77.8%.
With `Cc1cccc(-n2c3nc(=O)[nH]c(=O)c-3cc3c(C)nn(-c4ccccc4)c32)c1`, the normalized cell count was 45.2%.
Regarding `O=C(CCCOc1ccc(Cl)cc1Cl)N/N=C/c1ccco1`, the normalized cell count amounted to 120%.
The result for `CCOc1ccc(NC(=O)c2cnccn2)cc1` reads 45%; that for `N#Cc1c(N2CCN(C(=O)c3ccco3)CC2)nc(-c2ccccc2)c2c1CCCC2`, 108%; that for `Cc1ccc(SCCC(=O)N/N=C/c2ccncc2)cc1`, 152%.
For the compound `COc1ccc(C2=NCC(CSc3nccc(=O)[nH]3)S2)cc1` (stereo not drawn), the normalized cell count came to 123%.
Next, `COc1cc(NC(=O)c2cccs2)c(C(=O)OCC(=O)NC(C)c2ccccc2)cc1OC` (stereo not drawn): 48.3%; `Cc1nc(S(=O)(=O)Cc2ccccc2Cl)nc2c1CCC2`: 119%.
The result for `CCOC(=O)C1CCCN(C2CC(=O)N(c3ccc(C)cc3)C2=O)C1` (stereo not drawn) reads 82.9%; that for `O=C(NNC(=S)NCC1CCCO1)c1cccc(S(=O)(=O)N2CCOCC2)c1` (stereo not drawn), 76.6%; that for `COCCN1C(=O)c2ccccc2C(C(=O)NCCN(C)C)C1c1ccc(F)cc1` (stereo not drawn), 79.5%.
Next, `O=C(O)C1CCCCC1C(=O)Nc1ccc(Cl)cc1` (stereo not drawn): 131%; `CCn1cc(Cl)c(C(=O)N2N=C(c3ccc4ccccc4c3)CC2c2ccccc2O)n1` (stereo not drawn): 111%.
`Cc1ccc(OCC(=O)N/N=C/c2cccn2C)cc1` came in with a normalized cell count of 43.1%.
